Laboratory results from publication PMC11125064.
Results are given in words; binding and its absence hold for the method and conditions named. Binding calls can cover weak binding; strength is not graded here.

Protein sequences, listed by entry. Tags and fused reporters are not part of them.
UniProt K4DEK0: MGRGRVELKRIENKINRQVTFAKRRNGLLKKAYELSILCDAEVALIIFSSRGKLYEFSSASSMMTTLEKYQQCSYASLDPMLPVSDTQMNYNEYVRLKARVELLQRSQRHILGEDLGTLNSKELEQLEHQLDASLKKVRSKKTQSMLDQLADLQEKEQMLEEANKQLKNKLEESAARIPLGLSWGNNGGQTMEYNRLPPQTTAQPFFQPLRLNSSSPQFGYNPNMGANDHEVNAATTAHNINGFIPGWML

Target: SlMBP21 (tomato (Solanum lycopersicum)) (UniProt K4DEK0)
Experiment: two-hybrid; yeast two-hybrid; SlMBP21 ORF in pGBKT7 as bait (Y2HGold), ORFs of the partners in pGADT7 as prey (Y187); growth on QDO (SD without Trp, Leu, His, Ade) and blue colour on QDO/X (with X-alpha-Gal); self-activation of the bait was negative

binding: binds
Substance: SFT (SINGLE FLOWER TRUSS) (from UniProt Q84XL0)
